Measured values: patent WO2018121578A1
No constants are given. Whether binding was seen depends on the method and setting. Some binding calls cover weakened binding; strength is not graded here.

The chains behind the UniProt entries cited, without tags or fusion partners. Where a name states a change or a piece, a line headed by the entry shows the natural chain unless it says otherwise. A line that says so, or that is headed by a name, gives the form on record, which may keep a tag or linker.
CD147 protein (P35613, form named): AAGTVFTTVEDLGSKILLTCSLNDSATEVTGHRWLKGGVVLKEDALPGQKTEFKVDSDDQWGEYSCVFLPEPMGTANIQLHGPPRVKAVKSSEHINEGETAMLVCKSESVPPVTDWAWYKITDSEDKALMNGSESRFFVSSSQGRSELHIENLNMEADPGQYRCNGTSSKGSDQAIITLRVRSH

What was measured:
[1] = biological target: CD147 protein (UniProt P35613); assay: ELISA, relative binding activity (EC50 of sample against reference), preset standard 65%-150%
[2] = biological target: CD147 protein (UniProt P35613); assay: ELISA, relative binding activity after 40-fold dilution in 0.9% NaCl, up to 8 h at 25 C, preset standard 65%-150%
[3] = biological target: CD147 protein (UniProt P35613); assay: ELISA, relative binding activity after 6 months at 2-8 C, preset standard 65%-150%

Measured: binding

B1: HcHAb18 monoclonal antibody (antibody, human IgG1, kappa, V domains shown)
VH: EVKLEESGGGLVQPGGSMKLSCVASGFTFSDAWMDWVRQSPEKGLEWVAEIRSKANNHAPYYTESVKGRFTISRDDSKSIIYLQMNNLRAEDTGIYYCTRDSTATHWGQGTLVTVSA
VL: SIVMTQTPTFLVVSAGDRVTITCKASQSVINDVAWYQQKPGQSPKLLIFYASNRNTGVPDRFTGSGYGTDFTFTISTVQAEDLAVYFCQQDYSPPFTFGSGTKLEIKR
binds: all assays above
